Experimental findings from paper PMC4550094 (Journal of biomolecular screening, 2013) are described below.

This assay concerns HepG2 cells. The assay can be described thus: CellTiter-Glo cell viability assay. In kind it is cell-based, Human. To be noted: for Cell Viability Efficacy (maximum inhibition of cell viability): HepG2, 24 h treatment, mean ± SD of three experiments. (ATP-based viability assays read luminescence as a measure of living cells.)

One may read the IC50 as the concentration that gives 50% inhibition. With `O=C(CCCN1CCC2(CC1)C(=O)NCN2c1ccccc1)c1ccc(F)cc1` [Spiperone], the “Cell Viability Efficacy (maximum inhibition of cell viability)” value worked out at 83.5±7.3%. Moreover, where the note is “listed as spiperone”, the “Cell Viability Efficacy (maximum inhibition of cell viability)” value is 83%. For the same compound, where the note is “Homo sapiens, HepG2, 24 h, read-out: Cell Viability IC50”, the half-maximal inhibitory concentration (IC50) was determined as 8.9 ± 12.5 µM.
